Screening data, single-dose tests

Chains of the proteins cited; added tags and fusions are not shown. Residues count along the entry.
UniProt P9WPC5, whole entry: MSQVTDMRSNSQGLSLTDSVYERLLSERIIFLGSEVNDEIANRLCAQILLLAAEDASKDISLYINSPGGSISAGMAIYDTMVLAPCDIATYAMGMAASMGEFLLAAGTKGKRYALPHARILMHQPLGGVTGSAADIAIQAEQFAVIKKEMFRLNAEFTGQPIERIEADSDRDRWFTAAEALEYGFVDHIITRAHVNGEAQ
UniProt P9WPC3, whole entry partner: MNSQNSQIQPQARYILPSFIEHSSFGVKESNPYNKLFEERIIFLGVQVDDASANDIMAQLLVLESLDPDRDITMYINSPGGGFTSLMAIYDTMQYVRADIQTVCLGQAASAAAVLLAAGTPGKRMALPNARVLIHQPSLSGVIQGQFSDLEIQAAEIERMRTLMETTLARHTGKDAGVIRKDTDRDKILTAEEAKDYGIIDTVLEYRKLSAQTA
UniProt P9WFT3, whole entry: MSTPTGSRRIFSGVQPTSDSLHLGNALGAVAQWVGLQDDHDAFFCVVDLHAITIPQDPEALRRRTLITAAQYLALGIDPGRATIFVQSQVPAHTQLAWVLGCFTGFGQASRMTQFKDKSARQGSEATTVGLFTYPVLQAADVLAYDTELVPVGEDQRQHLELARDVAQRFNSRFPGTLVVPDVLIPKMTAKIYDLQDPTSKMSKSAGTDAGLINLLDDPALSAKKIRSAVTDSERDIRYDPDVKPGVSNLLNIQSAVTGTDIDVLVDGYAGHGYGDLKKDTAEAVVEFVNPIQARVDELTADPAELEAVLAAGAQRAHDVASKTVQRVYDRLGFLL
UniProt Q8IDJ8, 1-583: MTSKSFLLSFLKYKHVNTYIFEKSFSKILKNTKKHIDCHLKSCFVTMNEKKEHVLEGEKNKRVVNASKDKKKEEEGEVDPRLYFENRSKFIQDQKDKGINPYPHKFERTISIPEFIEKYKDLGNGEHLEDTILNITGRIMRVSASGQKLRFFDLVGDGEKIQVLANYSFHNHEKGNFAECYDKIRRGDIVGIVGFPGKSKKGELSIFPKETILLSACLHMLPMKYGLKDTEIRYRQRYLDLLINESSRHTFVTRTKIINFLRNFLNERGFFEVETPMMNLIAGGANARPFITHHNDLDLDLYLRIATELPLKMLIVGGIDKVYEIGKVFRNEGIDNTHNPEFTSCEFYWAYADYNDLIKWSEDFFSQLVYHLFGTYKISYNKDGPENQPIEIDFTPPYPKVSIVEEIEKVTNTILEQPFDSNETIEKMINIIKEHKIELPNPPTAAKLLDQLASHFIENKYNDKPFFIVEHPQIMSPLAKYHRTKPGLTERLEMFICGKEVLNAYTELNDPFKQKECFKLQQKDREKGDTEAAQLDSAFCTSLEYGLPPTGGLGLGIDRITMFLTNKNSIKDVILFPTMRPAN

Data taken from ChEMBL document CHEMBL3988442, “University of Dundee, Small-Polar-MMV Screening Library” (2021).

A: 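ClpP1P2, Mycobacterium tuberculosis (UniProt P9WPC5 and UniProt P9WPC3). Protease assay of ClpP1P2, read by the AMC dye that it sets free. Compounds at 50 µM. Higher reads as stronger inhibition, judged from the few compounds that gave an IC50. Most other retested compounds had strongly negative values. Size under these conditions: about 69,000 compounds, about 10 of them at 50% or above in at least one test.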
B: 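Enzyme assay of tryptophanyl-tRNA synthetase; the read-out is not stated. Target: Tryptophan-tRNA ligase, Mycobacterium tuberculosis (UniProt P9WFT3). Compounds at 10 µM. Direction is not recorded; retested compounds ran higher, which suggests that high means inhibition. Size under these conditions: about 65,000 compounds, about 64 of them at 50% or above in at least one test.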
C: 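Lysine-tRNA ligase, Plasmodium falciparum 3D7 (UniProt Q8IDJ8). Enzyme assay of the cytosolic lysyl-tRNA synthetase in 384-well plates, read by luminescence. Concentration: 30 µM. Higher reads as stronger inhibition, judged from the few compounds that gave an IC50. Of about 69,000 compounds tested this way, about 49 (0.071%) reached 50% or more in at least one test.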

The filed quantity is “Percent Effect” (%).
The controls that fix the scale are not given in the record; negative values are as filed.
This is an unselected part of the compounds tested.
A dash means the value is not listed here; it may have been measured.

| compound | A | B | C |
|---|---|---|---|
| `CC(=O)Nc1c(C)noc1/C=C\c1ccc(C)c(S(=O)(=O)NC2CC2)c1` | -1.425% | -3.223% | 2.837% |
| `CCc1nc(CN2CCCN(C(=O)c3cncnc3C)CC2)cs1` | -5.966% | -5.441% | 3.987% |
| `CCn1ncnc1C1CC(=O)NCc2nc(N3CCOCC3)sc21` (centres undefined) | -2.41% | -2.142% | 0.3661% |
| `OCc1csc(N2CCCC(CO)(Cc3cccc(Cl)c3)C2)n1` (centres undefined) | 3.646% | -1.485% | 2.298% |
| `COc1cc(CN2CCCC23CCN(c2ccccn2)CC3)ccc1F` | -7.773% | -2.101% | 4.427% |
| `Cc1nn(C)c2ncc(S(=O)(=O)N3CCCC(C(N)=O)C3)cc12` (centres undefined) | -12.87% | -0.2901% | 2.5% |
| `N#Cc1c(F)cccc1N1CCC(C(=O)Nc2nccs2)CC1` | 0.8423% | 1.336% | 2.494% |
| `CN1CCCC(c2nc3c([nH]2)CC(C)(C)CNC3=O)C1` (centres undefined) | 11.24% | 7.479% | 2.959% |
| `CC(CN1CCOCC1)NC(=O)c1cc(Cl)c2c(c1)OCCO2` (centres undefined) | 7.465% | 2.867% | 10.72% |
| `Cc1cnn(CC2CCCN2C(=O)c2c(F)cccc2Cl)c1` (centres undefined) | -11.32% | 0.5111% | 0.6297% |
| `O=C(c1csc(-c2ncccn2)n1)N1CCN(C2CCCC2)CC1` | 7.758% | 0.1874% | 3.087% |
| `COC(=O)[C@H]1CN(C(=O)NC(C)C)CCN1C(=O)C1CCCCC1` | -2.894% | 1.28% | 0.3302% |
| `Cc1cccc(N2CCC(NCc3cnc(C4CCC4)s3)CC2)n1` | -8.546% | 11.75% | -10.27% |
| `COc1ccc(SC(C)C(=O)N2CCC(O)CC2)cc1` (centres undefined) | -5.091% | -4.113% | 2.846% |
| `COc1ccccc1CN(CC1CCCO1)C(=O)c1cc(C)n[nH]1` (centres undefined) | -10.5% | 1.865% | -0.6516% |
| `Cc1nc(C2CCCN(C(=O)c3cnc(C)s3)C2)no1` (centres undefined) | 6.484% | -0.6173% | 0.8619% |
| `Cn1ccc2c(C(=O)N3CCN(C(=O)C4CCCC4)CC3)cccc21` | -9.033% | -0.6785% | 1.693% |
| `O=C(C[C@H]1[C@H]2CN(Cc3ccncc3)C[C@@H]12)N1CCCC1` | -9.507% | -3.638% | -3.625% |
| `CC(C)(CO)Nc1c(NCc2ccccc2)c(=O)c1=O` | -3.765% | 0.4772% | 7.044% |
| `Cc1cc(C2CCCN(C(=O)COc3cc(F)ccc3F)C2)n[nH]1` (centres undefined) | -6.462% | -2.812% | 1.369% |
| `CC(C)(O)CN1CC(C)(C)CN(C(=O)CCc2ccccc2)CC1=O` | 9.258% | - | 7.007% |
| `O=C1[C@@H]2CN(c3ncnc4[nH]ccc34)C[C@]2(C(=O)O)CN1CC1CC1` | -15.24% | -1.61% | 5.65% |
| `O=C(Cn1nc2c(cc1=O)CSCC2)N[C@@H](Cc1ccccc1)C(=O)O` | -11.6% | 1.555% | 7.193% |
| `CCn1cnnc1C1CCN(C(=O)c2ccc(C(=O)OC)s2)CC1` | 5.244% | 2.638% | 6.99% |
| `CCn1cnnc1CCNc1nc(C)cc(C)c1C#N` | -11.55% | 0.4542% | -9.252% |
| `Cc1nc(-c2cccnc2)ncc1C(=O)N1CCC(c2ncc[nH]2)CC1` | -6.927% | 5.425% | 5.426% |
| `Cc1cc(NC(=O)N2CCCC(O)C2)nn1-c1ccccc1Cl` (centres undefined) | -3.001% | -4.581% | 1.753% |
| `Cc1cccc(NC(=O)Cn2ncc(SCC(N)=O)c(Cl)c2=O)c1C` | 1.838% | -3.92% | 4.161% |
| `COCC(=O)N[C@H](C)c1onc(-c2ccc(F)cc2)c1C(=O)O` | 5.825% | 0.07588% | 4.363% |
| `Cn1cccc1C(=O)N1CCN(Cc2cccnc2)c2ncccc2C1` | -15.15% | -3.812% | 1.203% |
| `CC1=Nc2c(c(=O)[nH]n2C2CCOCC2)C(c2cccc(O)c2)S1` (centres undefined) | -13.56% | -2.333% | 1.724% |
| `CN(C)C(=O)C1CCCN(C(=O)c2ccccc2-n2cc(CN)cn2)C1` (centres undefined) | 13.42% | 25.2% | -6.654% |
| `CCN(Cc1ccc(OC)c(F)c1)Cc1nc2c(cnn2C)c(=O)[nH]1` | -46.97% | -3.887% | 2.791% |
| `Cc1noc(C)c1CCCNC(=O)C1CCN(C(=O)C2CCC2)CC1` | -8.173% | 2.346% | -1.564% |
| `O=C(NCCCN1CCOCC1)c1ccn(COc2ccc(Br)cc2)n1` | -6.104% | 4.016% | -4.632% |
| `COc1cc2[nH]c(=O)c(CN3CCC[C@@H]3C(N)=O)cc2c(OC)c1OC` | 2.645% | -3.138% | 2.039% |
| `O=C1CN(Cc2nnc(-c3ccc(Cl)cc3)o2)CCN1` | 3.769% | 1.57% | 1.542% |
| `c1coc(-c2nc(CN3CCCC(Cn4cncn4)C3)cs2)c1` (centres undefined) | -27.5% | 16.38% | -1.927% |
| `CCN(Cc1ccc(S(C)(=O)=O)cc1)Cc1nc(COC)no1` | -13.96% | 2.569% | 8.574% |
| `COc1ccc2nc(C3CC3)cc(C(=O)NCc3ncnn3C)c2c1` | -21.93% | 2.725% | -2.216% |
| `CCc1ocnc1C(=O)N1CCOCC1CC(=O)c1ccccc1` (centres undefined) | -6.853% | 1.175% | -0.8838% |
| `CCc1nc2n(n1)CC(NCc1cc3ccccc3o1)CC2` (centres undefined) | 2.181% | -1.398% | 1.386% |
| `CCn1nnc2c1C(COCCN(C)C)CN(S(C)(=O)=O)C2` (centres undefined) | 10.33% | -1.057% | 3.349% |
| `COCCN(Cc1ccc(C)cc1)Cc1c[nH]cn1` | -4.652% | -5.717% | 1.291% |
| `Cc1cc(C(=O)NCc2cccs2)nc(N2CCCC2)n1` | -14.69% | -0.6477% | -1.761% |
| `O=C(CCOc1ccc(Cl)cc1)N1CCN(c2cnccn2)CC1` | 1.663% | 3.595% | 9.319% |
| `CN(Cc1cccs1)C(=O)c1ccc(N2CCOCC2)c(F)c1` | -7.862% | 14.6% | -2.975% |
| `O=C(N[C@@H]1CN(Cc2ccoc2)[C@@H]2CCCO[C@@H]21)C1CC1` | -10.48% | -0.6634% | -2.443% |
| `Cc1nn(C)c(N(C)C)c1CNCc1ccc(OCC(N)=O)cc1` | 0.4704% | -1.098% | -0.969% |
| `CN1CCN(Cc2cnc3n2CCN(C(=O)c2ccnnc2)C3)CC1` | -0.2899% | -2.058% | 0.3483% |
| `c1ccc2c(c1)OCCC2NCc1ccc(N2CCOCC2)cc1` (centres undefined) | -1.55% | -1.63% | 6.215% |
| `COc1ccc(-c2nonc2N)cc1` | 17.94% | - | 3.2% |
| `COCCO[C@H]1CCN(c2cc(OC)ncn2)[C@H]1Cc1cccnc1` | -1.381% | -3.614% | -1.039% |
| `CC(C)Oc1cccc(CC(=O)NC2CCN(CC(N)=O)CC2)c1` | 3.881% | -0.2601% | 4.048% |
| `COc1cc(CN(C)C(=O)NCC(=O)NC(C)C)ccc1SC` | 6.158% | -3.431% | 0.1146% |
| `COCc1nc(CNC(=O)C(C)n2ccnc2C(C)C)no1` (centres undefined) | -20.44% | -1.447% | 1.905% |
| `CN(C)c1ccc(-c2ccnc3c2ccn3C)nn1` | -0.5501% | 1.956% | -1.288% |
| `Cc1cnn(C2CN(c3ccccc3S(=O)(=O)C(F)(F)F)C2)c1` | 1.228% | 5.773% | 6.621% |
| `CC(C)c1nc(-c2cc(C(=O)NCCN(C)C)c3ccccn23)cs1` | -27.51% | 0.2116% | 6.819% |
| `O=C(CN1CCN(c2ncccn2)[C@@H]2CS(=O)(=O)C[C@@H]21)N1CCCCC1` | -2.354% | -0.1487% | 3.482% |

Once more, the final 4:

Result for CN(C)c1ccc(-c2ccnc3c2ccn3C)nn1 was A: -0.5501%; B: 1.956%; C: -1.288%.
Result for Cc1cnn(C2CN(c3ccccc3S(=O)(=O)C(F)(F)F)C2)c1 was A: 1.228%; B: 5.773%; C: 6.621%.
Result for CC(C)c1nc(-c2cc(C(=O)NCCN(C)C)c3ccccn23)cs1 was A: -27.51%; B: 0.2116%; C: 6.819%.
Result for O=C(CN1CCN(c2ncccn2)[C@@H]2CS(=O)(=O)C[C@@H]21)N1CCCCC1 was A: -2.354%; B: -0.1487%; C: 3.482%.